Reference: publication PMC6932907
Results are given in words; binding and its absence hold for the method and conditions named. Binding seen in cells or lysates may run through a third protein. A result given as binding can be weak or reduced; the word gives no strength.

Key:
[1] = target: T1, Ninjurin2 (human (endogenous in A172 cells, primary human glioma cells and human glioma tissue)) (UniProt Q9NZG7); assay: co-IP; fresh human glioma tissue lysates from three patients (T1/2/3), same Co-IP assay (anti-Ninj2 capture, Western blotting)
T1 sequence: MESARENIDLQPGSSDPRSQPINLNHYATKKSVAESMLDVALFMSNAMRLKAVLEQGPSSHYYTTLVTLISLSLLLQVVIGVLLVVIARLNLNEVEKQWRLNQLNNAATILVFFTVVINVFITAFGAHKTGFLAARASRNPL

[2] = target: T1, Ninjurin2 (human (endogenous in A172 cells, primary human glioma cells and human glioma tissue)); assay: co-IP; 1000 μg total cellular lysates of A172 and primary human glioma cells (P1/P2), pre-cleared with beads; endogenous Ninj2 captured by an anti-Ninj2 antibody overnight, then beads 6-8h; Ninj2-immunoprecipitated proteins tested by Western blotting

## fibroblast growth factor receptor
[1]
  binding: binds
[2]
  binding: binds
